Experimental data: patent US20190248900A1
These are yes or no findings as the source states them, for the method shown.

Tests used:
Test in all cases: ELISA
BTN1A1 = target: BTN1A1
BTN3A1 = target: BTN3A1
BTN3A2 = target: BTN3A2
BTN3A3 = target: BTN3A3
BTNL9 = target: BTNL9
C18orf1 = target: C18orf1
CD276 = target: CD276
CD40LG = target: CD40LG
CD97 = target: CD97
CHRDL1 = target: CHRDL1
ECM1 = target: ECM1
EMR1 = target: EMR1
FASLG = target: FASLG
GP1BA = target: GP1BA
Kremen1 = target: Kremen1
LINGO1 = target: LINGO1
LRP11 = target: LRP11
LRP12 = target: LRP12
LRP6 = target: LRP6
LRRC4C = target: LRRC4C
LRRTM2 = target: LRRTM2
PODXL = target: PODXL
SELP = target: SELP
SEMA6A = target: SEMA6A
SPINT2 = target: SPINT2
TLR4 = target: TLR4
TLR7 = target: TLR7
TNFSF12 = target: TNFSF12
TNFSF13 = target: TNFSF13
TNFSF18 = target: TNFSF18
TNFSF4 = target: TNFSF4
TNR = target: TNR

Measured: binding

B1: PD1-41C9 (antibody, V domains shown)
VH: QMQLVESGGGVVQPGRSLRLSCAASGFTFSSYAMHWVRQAPGKGLEWVAVISYDGSNKYYADSVKGRFTISRDNSKNTLYLQMNRLRSEDTAVYYCTTTTFDSWGQGTLITVSS
VL: DIVMTQTPLSLPVTPGEAASISCRSSQSLLDSEDGNTYLDWYLQKPGQSPQLLIYTLSHRASGVPDRFSGSGSGTDFTLKISRVAAEDVGLYYCLQRMGFPYTFGQGTKLDIK
no binding (tested: 1 ug/ml): all assays above
